The other results are listed elsewhere or left out.
target: OsWRKY34 (Oryza sativa, UniProt Q0JBA9 1-250); test: protein-binding microarray (RPBM); PBS, 2% BSA, 51.3 ng/ul salmon testes DNA, 50 uM zinc acetate, 200 nM TF, 25 C, 1 h; high values mean tight binding; conditions: protein: recombinant; tags: N-terminal polyhistidine and DsRed monomer fusion (pET32a); label: CyDye5-dUTP incorporated in the synthesized complementary strand; 3' TTTTT single-stranded linker to array surface; dsDNA, one strand shown
Method in brief: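 Binding signal is reported as fluorescence intensity per feature (arbitrary units) from an Axon 4000B scanner. Incubation used 200 nM of each Ni–NTA-purified, N-terminally polyhistidine- and DsRed-fused transcription factor from E. coli BL21-CodonPlus on a double-stranded custom Agilent array for 1 h at 25 °C, with 50 µM zinc acetate in the buffer, followed by washing.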

Amino acid sequences for entries named in this document (tags omitted).
UniProt Q0JBA9, entry or part of it: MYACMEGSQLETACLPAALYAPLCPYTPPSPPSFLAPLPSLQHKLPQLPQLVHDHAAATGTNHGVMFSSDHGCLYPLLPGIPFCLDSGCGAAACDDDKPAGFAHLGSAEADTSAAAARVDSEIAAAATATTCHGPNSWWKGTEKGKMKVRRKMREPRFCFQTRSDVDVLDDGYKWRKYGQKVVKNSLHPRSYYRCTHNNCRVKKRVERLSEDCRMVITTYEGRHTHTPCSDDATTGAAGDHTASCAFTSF

Point of comparison: “GATCTGTAGCTCGTTGCTCTTCTCTCTCTTCTTTTATTTTCGGAGTCACCTAGTGCAG”, binding signal 8390 fluorescence intensity (a.u.). Against it:
- TGCATGCTGTCCTTTTTTGGCTGTGCCTGTTTTGCAATTTCGGAGTCACCTAGTGCAG — higher, 11300 fluorescence intensity (a.u.)
- CAACGCGGCTGATTGTGATTATGGTTAGAATTGTGTGTTTCGGAGTCACCTAGTGCAG — higher, 10400 fluorescence intensity (a.u.)
- AGTTTTTCTTTTCTTTTTTTATTTCATTTTCTATATTCTTCGGAGTCACCTAGTGCAG — higher, 10100 fluorescence intensity (a.u.)
- CTGCCGCCGCCCGGGTCATCTGTTCCGCCCACCGCCGTCGCGGAGTCACCTAGTGCAG — higher, 9420 fluorescence intensity (a.u.)
- GGTGCATTGGTATCATGAGTTTGTTATTTCTACTCAAGTACGGAGTCACCTAGTGCAG — higher, 8960 fluorescence intensity (a.u.)
- TTTTCTCTGTTTACTTTTTTTTTATTATTTTTTTGCGCCGCGGAGTCACCTAGTGCAG — lower, 8240 fluorescence intensity (a.u.)
- TTATTCTTCTCGCTACTAGAATCAGTGTTGTCTTAAAAACCGGAGTCACCTAGTGCAG — higher, 8620 fluorescence intensity (a.u.)
- GGCTGTGTTATGCCTTTTGTTCTGTTAGATATCACTCTCGCGGAGTCACCTAGTGCAG — higher, 9860 fluorescence intensity (a.u.)
- CCTCCTCGGGCTTGACTCGTCTCGTCTCGACTCCACGAACCGGAGTCACCTAGTGCAG — lower, 8230 fluorescence intensity (a.u.)
- GAAAGATTTTCACCGTTTGGGTAGGTTGGGGATGGGATGACGGAGTCACCTAGTGCAG — higher, 11400 fluorescence intensity (a.u.)
- CTCCTCTCGCTCCACCGCTTCGTCACGCAGGCCTCCGTCGCGGAGTCACCTAGTGCAG — higher, 9340 fluorescence intensity (a.u.)
- ACACGTTCTCTTGGATTCGATACCTTTGGAATACTCCGTACGGAGTCACCTAGTGCAG — lower, 8260 fluorescence intensity (a.u.)
- CCATTTTCGACCGTACCCTTTTGCCTACCATTAAATTCTGCGGAGTCACCTAGTGCAG — higher, 10300 fluorescence intensity (a.u.)
- CACTACTCATCAGCCCACGTTAACACGCGTTCTCCGGTGGCGGAGTCACCTAGTGCAG — lower, 8220 fluorescence intensity (a.u.)
- CCTCACCGGATGCTGCCCATGCCGATGCCGACCCGCCGTTCGGAGTCACCTAGTGCAG — higher, 10200 fluorescence intensity (a.u.)
- TGTTTGCCACTTGCCATTTTGCCAGCCGACCAAGCGCCACCGGAGTCACCTAGTGCAG — higher, 9700 fluorescence intensity (a.u.)
- TCTCGATTCACCTTCATCGTCAAGACTCACTACAACTTGTCGGAGTCACCTAGTGCAG — higher, 10400 fluorescence intensity (a.u.)
- CCATTAGGGAAGTCATCCCCACGTGCAGCTTTTTCTCGTCCGGAGTCACCTAGTGCAG — higher, 8680 fluorescence intensity (a.u.)
- TGTTGTTTCCTGTCCACTGACTCGCAGTTCATCCCGGATTCGGAGTCACCTAGTGCAG — higher, 9400 fluorescence intensity (a.u.)
- TGTGTGTGAGCAGCCGCAGTCCTTACGTTTAGCCCAGTCACGGAGTCACCTAGTGCAG — higher, 8590 fluorescence intensity (a.u.)
- TTTATGTGTGACTAAATATTTTCAGTTTTTTTATAAATTTCGGAGTCACCTAGTGCAG — higher, 8940 fluorescence intensity (a.u.)
- ATAAGCTTTCTGTTTCAGTTATATGATGTACCTAATTATGCGGAGTCACCTAGTGCAG — higher, 9350 fluorescence intensity (a.u.)
